Source: PMC10163288
This is one part of the list.

B1: il2ra_site1_3nfp_normal_mot_HHH_b1_04285_000000000_0001_1_16_H_._HHH_b2_05445_0001_0000200005_0000001_1_af2pred_0001_af2pred (protein)
chain: SSSSDREHLERVLELLRRLARVSEEEAKELLEEAQELAEEANDPALKKLVERFARVVRRTSSSSS
B2: il2ra_site2_3nfp_sap_29_mot_2fddaf487ee4b636a798e6d487813806_0001_000000215_0001_37_52_H_._6f585245ea955156d935feb295d12df0_0001_0001_0000500042_0000001_0_0001 (protein)
chain: SSSSKAEEYLEFALEALQRAVEEGDPEFVEKLEHIIRVVVETNNDEEAERLLEEILRRFEESSSS
B3: il2ra_site2_3nfp_normal_mot_HHH_b2_06320_000000197_0001_39_53_H_._HHH_b1_05126_af2_0001_0000500027_0000001_0 (protein)
chain: SSSSSSDVEELLKQIEELYKEGNEEEVRRLFAEILNEAFELRDHELFALLNELAEKLASSSSSSS
B4: il2ra_site1_2b5i_normal_mot_HHH_b2_04910_000000118_0001_1_19_H_._HHH_b1_07584_af2_0001_0000100006_0000001_0 (protein)
chain: SSSSSSAAEIFQELFREADELDRNGNPEEAQKVLEELLELLRELGNPWLVRSVEIALSDFSSSSS
B5: il2ra_site2_2erj_sap_18_mot_HHH_b2_05264_af2_000000057_0001_44_57_H_._HHH_b2_04770_0001_0000200005_0000001_0_0001_af2pred_0001_1_af2pred_swapped (protein)
chain: SSSSSSDLEERVEKLLEEAKEIKDLQEALKLLQEASELAAELDDDELLELVDRVLQELSSSSSSS
B6: il2ra_site2_3nfp_sap_23_mot_HHH_b2_08245_000000023_0001_41_55_H_._HHH_b2_01389_0001_0000100012_0000001_0_0001 (protein)
chain: SSSSKAHEYLRVALELAKLALEEGDPEVAREIAETALQAAESANDPELFEEIEELLEEIEGSSSS
B7: il2ra_site1_1z92_normal_mot_HHH_b2_00385_000000257_0001_1_19_H_._HHH_b1_07316_0001_0000100006_0000001_0 (protein)
chain: SSSSSWHEEILESLERSLRRLLEEGNEKSLEKALEFLEKAAKENNDEEALEFVEELKERLSSSSS
B8: il2ra_site2_2erj_sap_11_mot_HHH_b2_02572_000000148_0001_42_59_H_._HHH_b2_02950_af2_0001_0000200009_0000001_0_0001 (protein)
chain: SSSSDEEAARLALEVTEELLRLWEEGNPEEVEKLAEEAERRLEELGSPNLARFIELALRDLSSSS
B9: il2ra_site1_2b5i_sap_9_mot_HHH_b2_00231_000000175_0001_20_36_H_._HHH_b2_06598_af2_0001_0000300021_0000001_0_0001_af2pred_dldesign_0_af2pred (protein)
chain: SSSSSDPYDEVIRLFKEAQKLWREGKKEEAKEVLEKALEVAKKLKDDVIVAELERLLELLSSSSS
B10: il2ra_site2_3nfp_sap_9_mot_HHH_b2_00729_000000274_0001_42_55_H_._HHH_b1_06795_af2_0002_0000100002_0000001_0_0001 (protein)
chain: SSSSSESEEYLRAALLLLELAIEHGDEHAFESTLEAVRLAAESNNDEEVEKRVEELEKEFKSSSS
B11: il2ra_site1_3nfp_sap_16_mot_HHH_b1_07204_af2_000000187_0001_41_55_H_._HHH_b1_05536_0001_0000300023_0000001_0_0001 (protein)
chain: SSSSTEEMAKRSREIMELIKEGDHEEAEELARELLKEAREMGDKVARWLLEQLLERIEAASSSSS
B12: il2ra_site1_1z92_normal_mot_HHH_b2_03658_000000138_0001_39_56_H_._HHH_b2_00767_0001_0000100004_0000001_0 (protein)
chain: SSSSDKELEYLEEQIRRALERGSKKLAQKLIEMVRELAEFADDDEARRVAEELQEILEELSSSSS
B13: il2ra_site1_1z92_normal_mot_01209686ea234b34325f918445e6eade_0001_af2_000000154_0001_18_33_H_._HHH_b2_05878_0001_0000400061_0000001_0_af2pred_0001_af2pred (protein)
chain: SSSSSSLEEEAEEIVKELVKEYNLSEEDEELLRLAAENAVRAGFSEHSIERALRDFAERLSSSSS
B14: il2ra_site2_2erj_normal_mot_9d722f4281fe2ab0f1894ca7efdbd281_0001_1_000000254_0001_1_13_H_._a87409d3d07ab778cdfa687b5837bbba_0001_af2_0001_0001000009_0000001_0 (protein)
chain: DIRDVLRILERLFRNNPELKELLEEAEELLERGNPEEAVKVLERVLREAGVPPWFREALEHQAKQ
B15: il2ra_site1_2b5i_sap_9_mot_HHH_b2_02740_000000236_0001_1_21_H_._HHH_b1_02398_0001_0000300016_0000001_0_0001 (protein)
chain: SSSSDDELFHEIDELFREASRLFLNGNPEEAEKVLEKAIRLAEEGGDESTAEDLRRFLELLSSSS
B16: il2ra_site1_1z92_sap_9_mot_c9a8daa1dfea21d1414aecde54be4f54_0001_1_af2_000000024_0001_32_46_H_._0e4f66a3c4b070984708d3e1d5382b02_0001_1_af2_0001_0000100008_0000 … (protein)
chain: SSSSTDELARVAVRIVAEVFRQFNLSDEEFEELIRLADELLLKGYSEEEIREILEELAEKSSSSS
B17: il2ra_site1_3nfp_normal_mot_HHH_b2_05178_af2_000000174_0001_1_19_H_._HHH_b1_00627_af2_0001_0000200014_0000001_0 (protein)
chain: SSSSDREARRLLQEALRLAINGNPEEAKEVAEEAEKVAREEGNESLRKHIELLLKAIELLLSSSS
B18: il2ra_site1_3nfp_normal_mot_0eddeacbb14b769e73e254714f31e2f9_0001_af2_000000052_0001_37_51_H_._2ccf0a1412af474efb002135fd3db7a6_0001_af2_0001_0000300024_0000001 … (protein)
chain: NDADRLIKEAIRLDPRFADLLYRLMRLLIKNPDDEELLEALEEVVELILEGDPEEARKVAEEILK

Target: il2ra, P01589
Assay: yeast display titration

Apparent Kd, inactive:
B1 no binding seen
B2 no binding seen
B3 no binding seen
B4 no binding seen
B5 no binding seen
B6 no binding seen
B7 no binding seen
B8 no binding seen
B9 no binding seen
B10 no binding seen
B11 no binding seen
B12 no binding seen
B13 no binding seen
B14 no binding seen
B15 no binding seen
B16 no binding seen
B17 no binding seen
B18 no binding seen

An excerpt taken from the entries so far, as a working copy:
Apparent Kd, inactive:
B8 no binding seen
B9 no binding seen
B10 no binding seen
B11 no binding seen
B12 no binding seen
